Laboratory results as given in publication PMC11293393.
These are yes or no findings as the source states them, for the method shown. Binding seen in cells or lysates may run through a third protein. Some results given as binding are weak or reduced against the parent protein; the word gives no strength. Where a sequence is shown, tags or fusion partners need not be part of it.

Sequences of proteins named here, by UniProt entry; tags and fusion partners are left off.
UniProt P83917: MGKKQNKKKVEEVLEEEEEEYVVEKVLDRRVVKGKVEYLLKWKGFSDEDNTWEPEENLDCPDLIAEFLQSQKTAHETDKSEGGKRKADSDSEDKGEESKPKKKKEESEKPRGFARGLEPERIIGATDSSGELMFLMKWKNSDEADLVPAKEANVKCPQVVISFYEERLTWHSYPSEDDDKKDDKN
UniProt Q6PDQ2: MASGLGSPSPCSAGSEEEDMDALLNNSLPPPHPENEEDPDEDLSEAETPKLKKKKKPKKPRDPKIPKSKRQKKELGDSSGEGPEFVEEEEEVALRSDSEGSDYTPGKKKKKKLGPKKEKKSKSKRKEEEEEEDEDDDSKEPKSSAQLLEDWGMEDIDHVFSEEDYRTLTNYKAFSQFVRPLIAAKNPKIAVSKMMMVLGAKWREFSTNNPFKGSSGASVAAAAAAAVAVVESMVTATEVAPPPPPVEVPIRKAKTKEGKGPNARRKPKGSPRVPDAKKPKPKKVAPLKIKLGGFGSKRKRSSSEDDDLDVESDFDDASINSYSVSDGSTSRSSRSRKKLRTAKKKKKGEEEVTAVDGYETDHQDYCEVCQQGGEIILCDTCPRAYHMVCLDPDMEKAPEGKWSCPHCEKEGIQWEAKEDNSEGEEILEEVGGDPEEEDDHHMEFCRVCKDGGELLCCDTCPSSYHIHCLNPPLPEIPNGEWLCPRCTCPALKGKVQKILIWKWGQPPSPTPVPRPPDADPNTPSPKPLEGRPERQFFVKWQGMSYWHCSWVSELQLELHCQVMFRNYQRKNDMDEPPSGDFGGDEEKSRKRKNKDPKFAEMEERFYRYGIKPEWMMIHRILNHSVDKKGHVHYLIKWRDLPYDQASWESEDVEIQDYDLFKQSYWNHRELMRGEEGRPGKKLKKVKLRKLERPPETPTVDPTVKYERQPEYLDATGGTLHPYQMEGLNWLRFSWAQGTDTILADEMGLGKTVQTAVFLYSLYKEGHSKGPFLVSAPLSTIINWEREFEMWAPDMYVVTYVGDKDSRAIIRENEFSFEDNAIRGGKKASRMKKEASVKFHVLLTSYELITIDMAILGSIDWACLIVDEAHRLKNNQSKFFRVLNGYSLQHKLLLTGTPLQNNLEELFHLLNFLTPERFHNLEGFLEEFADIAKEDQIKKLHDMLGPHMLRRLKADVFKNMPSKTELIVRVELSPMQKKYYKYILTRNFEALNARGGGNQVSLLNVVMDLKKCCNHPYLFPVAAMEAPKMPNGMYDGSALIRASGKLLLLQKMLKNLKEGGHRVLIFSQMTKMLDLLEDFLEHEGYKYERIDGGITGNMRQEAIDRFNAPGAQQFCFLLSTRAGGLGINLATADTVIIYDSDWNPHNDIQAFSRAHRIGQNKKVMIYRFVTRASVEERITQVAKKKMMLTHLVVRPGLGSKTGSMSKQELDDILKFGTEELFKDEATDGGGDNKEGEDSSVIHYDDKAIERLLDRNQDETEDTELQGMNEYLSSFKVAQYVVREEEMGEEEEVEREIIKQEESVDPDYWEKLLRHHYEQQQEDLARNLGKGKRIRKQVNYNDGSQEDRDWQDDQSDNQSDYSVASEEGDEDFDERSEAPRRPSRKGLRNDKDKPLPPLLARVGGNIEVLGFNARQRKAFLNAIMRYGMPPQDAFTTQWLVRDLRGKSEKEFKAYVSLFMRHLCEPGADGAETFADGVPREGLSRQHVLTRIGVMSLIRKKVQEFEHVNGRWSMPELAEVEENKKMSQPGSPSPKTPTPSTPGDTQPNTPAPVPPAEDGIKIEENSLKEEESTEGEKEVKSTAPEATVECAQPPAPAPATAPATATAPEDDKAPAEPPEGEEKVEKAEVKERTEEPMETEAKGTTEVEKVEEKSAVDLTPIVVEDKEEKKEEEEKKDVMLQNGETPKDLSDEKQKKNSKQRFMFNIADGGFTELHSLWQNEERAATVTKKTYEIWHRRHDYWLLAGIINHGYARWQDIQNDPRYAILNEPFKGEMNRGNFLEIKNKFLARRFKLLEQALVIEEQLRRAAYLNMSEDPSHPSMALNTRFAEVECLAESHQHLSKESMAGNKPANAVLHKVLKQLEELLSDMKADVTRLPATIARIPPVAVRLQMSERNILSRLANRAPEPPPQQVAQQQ

Biological target: T1, ADNP2^Avi-3xFLAG (mouse (endogenous in mouse ES cells)) (UniProt Q8CHC8)
T1 sequence: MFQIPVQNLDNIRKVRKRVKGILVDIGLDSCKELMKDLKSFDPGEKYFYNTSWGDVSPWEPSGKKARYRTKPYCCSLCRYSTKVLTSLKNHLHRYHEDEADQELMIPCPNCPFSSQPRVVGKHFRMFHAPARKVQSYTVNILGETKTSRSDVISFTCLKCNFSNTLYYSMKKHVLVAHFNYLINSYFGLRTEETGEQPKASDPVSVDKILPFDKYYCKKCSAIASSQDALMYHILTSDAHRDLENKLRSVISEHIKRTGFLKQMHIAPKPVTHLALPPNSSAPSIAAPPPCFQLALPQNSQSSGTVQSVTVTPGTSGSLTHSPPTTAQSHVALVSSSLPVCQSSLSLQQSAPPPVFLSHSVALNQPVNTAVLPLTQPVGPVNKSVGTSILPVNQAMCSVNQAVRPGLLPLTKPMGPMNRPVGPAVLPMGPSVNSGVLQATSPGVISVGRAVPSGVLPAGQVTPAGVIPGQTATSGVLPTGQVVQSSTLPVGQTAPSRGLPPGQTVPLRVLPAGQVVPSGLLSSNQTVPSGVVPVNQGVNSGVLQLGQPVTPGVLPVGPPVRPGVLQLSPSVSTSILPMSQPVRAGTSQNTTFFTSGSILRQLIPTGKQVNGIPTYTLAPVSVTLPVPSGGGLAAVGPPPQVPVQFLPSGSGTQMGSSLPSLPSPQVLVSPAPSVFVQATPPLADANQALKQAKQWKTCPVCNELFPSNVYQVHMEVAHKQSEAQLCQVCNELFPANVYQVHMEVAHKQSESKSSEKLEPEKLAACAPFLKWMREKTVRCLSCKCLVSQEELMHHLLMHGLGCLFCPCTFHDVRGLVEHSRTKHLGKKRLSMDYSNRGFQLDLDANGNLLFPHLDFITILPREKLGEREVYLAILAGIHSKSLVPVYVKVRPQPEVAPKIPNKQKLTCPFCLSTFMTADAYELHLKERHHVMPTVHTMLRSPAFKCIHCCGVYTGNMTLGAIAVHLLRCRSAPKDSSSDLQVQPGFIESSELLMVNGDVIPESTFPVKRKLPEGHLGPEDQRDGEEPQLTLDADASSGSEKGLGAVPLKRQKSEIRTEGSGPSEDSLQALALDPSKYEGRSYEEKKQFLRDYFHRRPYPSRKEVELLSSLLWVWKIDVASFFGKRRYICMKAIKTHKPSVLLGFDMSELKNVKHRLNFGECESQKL
Assay: co-IP; pull-down of WT or PxVxL-mutated ADNP2^Avi-3xFLAG from mouse ES cell lysate (NP-40 lysis buffer, 150 mM NaCl, benzonase); beads and detection are in Supplemental Fig. S4B, not shown

## HP1β (from UniProt P83917 1-185)
  binding: binds

## CHD4 (from UniProt Q6PDQ2 1-1915)
  binding: binds
